Where no unit stands, none is given here, and values compare only within one read-out.
Experiments:
[1] = Serum ethanolamine phospholipid levels in human cohorts (dementia severity, post-mortem pathology, age) by flow-injection MS/MS
[2] = Serum ethanolamine phospholipid ratios to PtdEt 16:0/18:0 (M01) in human cohorts
[3] = serum, females, post mortem SDAT
[4] = serum, females, post mortem control

Compound: CCCCC/C=C\C/C=C\CCCCCCCC(=O)OC(CO/C=C\CCCCCCCCCCCCCC)COP(=O)(O)OCCN (centres unmarked) [Metabolite M16, Plasmenyl 16:0/18:2]
- Ratio of serum levels ([1]; AD, All to CN, Male): 0.778
- Ratio of serum levels ([1]; ADAS 5-19 to CN, Male): 0.802
- Ratio of serum levels ([1]; ADAS 20-39 to 5-19, Male): 0.947
- Ratio of serum levels ([1]; ADAS 20-39 to CN, Male): 0.759
- Ratio of serum levels ([1]; ADAS 40-70 to 5-19, Male): 0.895
- Ratio of serum levels ([1]; ADAS 40-70 to 20-39, Male): 0.946
- Ratio of serum levels ([1]; ADAS 40-70 to CN, Male): 0.718
- Serum level, Mean ([1]; Cognitive Normal, Female): 0.250
- Average serum level, Mean ([1]; Cognitive Normal, Male): 0.266
- Serum level, Mean ([1]; Post Mortem Ctl, Male): 0.092
- Serum level, Mean ([1]; Post Mortem SDAT Male): 0.053
- Ratio of serum levels ([1]; Post mortem SDAT vs Control, Male): 0.570
- Serum level, Mean ([1]; SDAT, ADAS 5-19, Female): 0.214
- Average serum level, Mean ([1]; SDAT, ADAS 5-19, Male): 0.213
- Serum level, Mean ([1]; SDAT, ADAS 20-39, Female): 0.201
- Average serum level, Mean ([1]; SDAT, ADAS 20-39, Male): 0.202
- Serum level, Mean ([1]; SDAT, ADAS 40-70, Female): 0.164
- Average serum level, Mean ([1]; SDAT, ADAS 40-70, Male): 0.191
- Serum level, Mean ([1]; SDAT_all, Female): 0.192
- Average serum level, Mean ([1]; SDAT_all, Male): 0.207
- Ratio, ADAS 5-19 to CN, Female ([1]; serum level ratio, females, ADAS 5-19 vs CN): 0.853
- Ratio, ADAS 20-39 to 5-19, Female ([1]; serum level ratio, females, ADAS 20-39 vs ADAS 5-19): 0.940
- Ratio, ADAS 20-39 to CN, Female ([1]; serum level ratio, females, ADAS 20-39 vs CN): 0.801
- Ratio, ADAS 40-70 to 5-19, Female ([1]; serum level ratio, females, ADAS 40-70 vs ADAS 5-19): 0.769
- Ratio, ADAS 40-70 to 20-39, Female ([1]; serum level ratio, females, ADAS 40-70 vs ADAS 20-39): 0.819
- Ratio, ADAS 40-70 to CN, Female ([1]; serum level ratio, females, ADAS 40-70 vs CN): 0.656
- Ratio, 50-59 vs. 40-49, Female ([1]; serum level ratio, females, age 50-59 vs 40-49): 0.846
- Ratio, 60-69 vs. 40-49, Female ([1]; serum level ratio, females, age 60-69 vs 40-49): 0.786
- Ratio, 70+ vs. 40-49, Female ([1]; serum level ratio, females, age 70+ vs 40-49): 0.867
- Ratio, AD, All to CN, Female ([1]; serum level ratio, females, all AD vs cognitively normal): 0.765
- Ratio, Autopsy AD vs. Control, Female ([1]; serum level ratio, females, autopsy AD vs control): 0.594
- Ratio, 50-59 vs. 40-49, Male ([1]; serum level ratio, males, age 50-59 vs 40-49): 1.109
- Ratio, 60-69 vs. 40-49, Male ([1]; serum level ratio, males, age 60-69 vs 40-49): 1.013
- Ratio, 70+ vs. 40-49, Male ([1]; serum level ratio, males, age 70+ vs 40-49): 1.118
- Mean serum level, Age Ctl, 30-39, Female ([1]; serum, females, age 30-39): 0.274
- Mean serum level, Age Ctl, 40-49, Female ([1]; serum, females, age 40-49): 0.268
- Mean serum level, Age Ctl, 50-59, Female ([1]; serum, females, age 50-59): 0.226
- Mean serum level, Age Ctl, 60-69, Female ([1]; serum, females, age 60-69): 0.210
- Mean serum level, Age Ctl, 70+, Female ([1]; serum, females, age 70+): 0.232
- Mean serum level, Post Mortem SDAT, Female [1, 3]: 0.064
- Mean serum level, Post Mortem Ctl, Female [1, 4]: 0.107
- Mean serum level, Age Ctl, 30-39, Male ([1]; serum, males, age 30-39): 0.291
- Mean serum level, Age Ctl, 40-49, Male ([1]; serum, males, age 40-49): 0.220
- Mean serum level, Age Ctl, 50-59, Male ([1]; serum, males, age 50-59): 0.244
- Mean serum level, Age Ctl, 60-69, Male ([1]; serum, males, age 60-69): 0.223
- Mean serum level, Age Ctl, 70+, Male ([1]; serum, males, age 70+): 0.246
- Ratio of ethanolamine phospholipid ratios to M01 between cohorts ([2]; AD, All to CN, Male): 0.747
- Ratio of ethanolamine phospholipid ratios to M01 between cohorts ([2]; ADAS 5-19 to CN, Male): 0.774
- Ratio of ethanolamine phospholipid ratios to M01 between cohorts ([2]; ADAS 20-39 to CN, Male): 0.741
- Ratio of ethanolamine phospholipid ratios to M01 between cohorts ([2]; ADAS 40-70 to CN, Male): 0.704
- Average serum ethanolamine phospholipid ratio to M01, Mean ([2]; Cognitive Normal, Male, serum): 2.398
- Average serum ethanolamine phospholipid ratio to M01, Mean ([2]; SDAT, ADAS 5-19, Male, serum): 1.856
- Average serum ethanolamine phospholipid ratio to M01, Mean ([2]; SDAT, ADAS 20-39, Male, serum): 1.777
- Average serum ethanolamine phospholipid ratio to M01, Mean ([2]; SDAT, ADAS 40-70, Male, serum): 1.687
- Average serum ethanolamine phospholipid ratio to M01, Mean ([2]; SDAT_all, Male, serum): 1.790
- Ethanolamine Phospholipid Ratio to M01, Mean, Age Ctl, 30-39, Female ([2]; human serum, females aged 30-39): 2.739
- Ethanolamine Phospholipid Ratio to M01, Mean, Age Ctl, 40-49, Female ([2]; human serum, females aged 40-49): 2.483
- Ethanolamine Phospholipid Ratio to M01, Mean, Age Ctl, 50-59, Female ([2]; human serum, females aged 50-59): 2.345
- Ratio of Ethanolamine Phospholipid Ratio to M01, 50-59 vs. 40-49, Female ([2]; human serum, females aged 50-59 vs. females aged 40-49): 0.944
- Ethanolamine Phospholipid Ratio to M01, Mean, Age Ctl, 60-69, Female ([2]; human serum, females aged 60-69): 1.783
- Ratio of Ethanolamine Phospholipid Ratio to M01, 60-69 vs. 40-49, Female ([2]; human serum, females aged 60-69 vs. females aged 40-49): 0.718
- Ethanolamine Phospholipid Ratio to M01, Mean, Age Ctl, 70+_Female ([2]; human serum, females aged 70+): 1.964
- Ratio of Ethanolamine Phospholipid Ratio to M01, 70+ vs. 40-49, Female ([2]; human serum, females aged 70+ vs. females aged 40-49): 0.791
- Ratio of Ethanolamine Phospholipid Ratio to M01, 50-59 vs. 40-49, Male ([2]; human serum, males aged 50-59 vs. males aged 40-49): 1.131
- Ratio of Ethanolamine Phospholipid Ratio to M01, 60-69 vs. 40-49, Male ([2]; human serum, males aged 60-69 vs. males aged 40-49): 0.880
- Ratio of Ethanolamine Phospholipid Ratio to M01, 70+ vs. 40-49, Male ([2]; human serum, males aged 70+ vs. males aged 40-49): 0.951
- Ratio of ethanolamine phospholipid ratio to M01, ADAS 5-19 to CN, Female ([2]; serum, females, ADAS 5-19 vs cognitive normal): 0.901
- Ratio of ethanolamine phospholipid ratio to M01, ADAS 20-39 to 5-19, Female ([2]; serum, females, ADAS 20-39 vs ADAS 5-19): 0.956
- Ratio of ethanolamine phospholipid ratio to M01, ADAS 20-39 to CN, Female ([2]; serum, females, ADAS 20-39 vs cognitive normal): 0.861
- Ratio of ethanolamine phospholipid ratio to M01, ADAS 40-70 to 5-19, Female ([2]; serum, females, ADAS 40-70 vs ADAS 5-19): 0.737
- Ratio of ethanolamine phospholipid ratio to M01, ADAS 40-70 to 20-39, Female ([2]; serum, females, ADAS 40-70 vs ADAS 20-39): 0.771
- Ratio of ethanolamine phospholipid ratio to M01, ADAS 40-70 to CN, Female ([2]; serum, females, ADAS 40-70 vs cognitive normal): 0.664
- Ethanolamine phospholipid ratio to M01, Mean, SDAT, ADAS 5-19, Female ([2]; serum, females, SDAT ADAS 5-19): 1.994
- Ethanolamine phospholipid ratio to M01, Mean, SDAT, ADAS 20-39, Female ([2]; serum, females, SDAT ADAS 20-39): 1.906
- Ethanolamine phospholipid ratio to M01, Mean, SDAT, ADAS 40-70, Female ([2]; serum, females, SDAT ADAS 40-70): 1.470
- Ratio of ethanolamine phospholipid ratio to M01, AD, All to CN, Female ([2]; serum, females, all AD vs cognitive normal): 0.804
- Ethanolamine phospholipid ratio to M01, Mean, SDAT_all Female ([2]; serum, females, all SDAT): 1.780
- Ratio of ethanolamine phospholipid ratio to M01, Autopsy AD vs. Control, Female ([2]; serum, females, autopsy AD vs post mortem control): 0.895
- Ethanolamine phospholipid ratio to M01, Mean, Cognitive Normal, Female ([2]; serum, females, cognitive normal): 2.214
- Ethanolamine phospholipid ratio to M01, Mean, Post Mortem SDAT Female [2, 3]: 0.599
- Ethanolamine phospholipid ratio to M01, Mean, Post Mortem Ctl, Female [2, 4]: 0.670
- Ratio of ethanolamine phospholipid ratio to M01, ADAS 20-39 to 5-19, Male ([2]; serum, males, SDAT ADAS 20-39 vs ADAS 5-19): 0.957
- Ratio of ethanolamine phospholipid ratio to M01, ADAS 40-70 to 5-19, Male ([2]; serum, males, SDAT ADAS 40-70 vs ADAS 5-19): 0.909
- Ratio of ethanolamine phospholipid ratio to M01, ADAS 40-70 to 20-39, Male ([2]; serum, males, SDAT ADAS 40-70 vs ADAS 20-39): 0.950
- Ethanolamine phospholipid ratio to M01, Mean, Age Ctl, 30-39, Male ([2]; serum, males, age control 30-39): 2.429
- Ethanolamine phospholipid ratio to M01, Mean, Age Ctl, 40-49, Male ([2]; serum, males, age control 40-49): 2.020
- Ethanolamine phospholipid ratio to M01, Mean, Age Ctl, 50-59, Male ([2]; serum, males, age control 50-59): 2.284
- Ethanolamine phospholipid ratio to M01, Mean, Age Ctl, 60-69, Male ([2]; serum, males, age control 60-69): 1.778
- Ethanolamine phospholipid ratio to M01, Mean, Age Ctl, 70+_Male ([2]; serum, males, age control 70+): 1.922
- Ethanolamine phospholipid ratio to M01, Mean, Post Mortem SDAT Male ([2]; serum, males, post mortem SDAT): 0.627
- Ratio of ethanolamine phospholipid ratio to M01, SDAT vs Control (post mortem, males) ([2]; serum, males, post mortem SDAT vs post mortem control): 0.791
- Ethanolamine phospholipid ratio to M01, Mean, Post Mortem Ctl, Male ([2]; serum, males, post mortem control): 0.792
